Data as given in PubChem BioAssay AID1053208 (Peter MacCallum Cancer Centre, 2014).
Assay: 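Genes whose silencing cuts survival of bone tumour cells only with doxorubicin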 (primary screen). Cells: mouse osteosarcoma cells, early-passage culture from an engineered mouse model of fibroblastic bone tumour. Knock-down reagent: siRNA pool against mouse genes, 40 nM. Timing: about 120 h (48 h before drug, then 72 h with drug). Treatment: doxorubicin 100 nM for 72 h, roughly 30-40% inhibitory dose. Measured: 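Luminescent ATP signal taken as viability with or without 100 nM doxorubicin for 72 h; mean of two wells set against non-targeting siRNA and turned into robust z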. Scale: viability z-score with doxorubicin: higher = more viable cells under doxorubicin; viability z-score without drug: higher = more viable cells with knock-down alone. Rule for the call: 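a pool counts as active when its viability z-score with doxorubicin is -2 or below and its z-score without drug lies between -2 and 2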.
Here is one part, drawn at random, of about 17,000 reagents tested. 788 of them (4.7%) count as active. 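Calls rest on z-score classes alone; an extra cut-off of viability at most 70% of control was not applied to them.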 Unmarked entries are inactive. The numbers tell different reagents against one gene apart. Further read-outs or replicates are left out here. Reagent sequences are not shown.

{"gene": "Fkbp2", "reagent": 1, "combined z-score class": "no change with or without drug", "viability z-score with doxorubicin": -0.56, "viability z-score without drug": 0.84}
{"gene": "Phtf1", "reagent": 1, "combined z-score class": "no change with or without drug", "viability z-score with doxorubicin": 0, "viability z-score without drug": -0.17}
{"gene": "Tdpoz4", "reagent": 1, "combined z-score class": "high cell count without drug only", "viability z-score with doxorubicin": 0.11, "viability z-score without drug": 2.19}
{"gene": "Il17b", "reagent": 1, "combined z-score class": "no change with or without drug", "viability z-score with doxorubicin": 0.45, "viability z-score without drug": 0.17}
{"gene": "Ubash3b", "reagent": 1, "combined z-score class": "no change with or without drug", "viability z-score with doxorubicin": 1.35, "viability z-score without drug": 0.17}
{"gene": "Rdm1", "reagent": 1, "combined z-score class": "no change with or without drug", "viability z-score with doxorubicin": -1.12, "viability z-score without drug": 0.17}
{"gene": "Rbm15b", "reagent": 1, "combined z-score class": "no change with or without drug", "viability z-score with doxorubicin": 0.9, "viability z-score without drug": 1.18}
{"gene": "Elp1", "reagent": 1, "combined z-score class": "high cell count with doxorubicin only", "viability z-score with doxorubicin": 2.02, "viability z-score without drug": 0.51}
{"gene": "Lzts2", "reagent": 1, "combined z-score class": "no change with or without drug", "viability z-score with doxorubicin": -0.67, "viability z-score without drug": 0.84}
{"gene": "Podxl2", "reagent": 1, "combined z-score class": "no change with or without drug", "viability z-score with doxorubicin": 0.34, "viability z-score without drug": 1.01}
{"gene": "Ear6", "reagent": 1, "combined z-score class": "no change with or without drug", "viability z-score with doxorubicin": -0.9, "viability z-score without drug": 1.18}
{"gene": "Myt1", "reagent": 1, "combined z-score class": "no change with or without drug", "viability z-score with doxorubicin": 1.69, "viability z-score without drug": -0.17}
{"gene": "Mfap3", "reagent": 1, "combined z-score class": "no change with or without drug", "viability z-score with doxorubicin": 0.79, "viability z-score without drug": 0.17}
{"gene": "D16Ertd472e", "reagent": 1, "combined z-score class": "low cell count without drug only", "viability z-score with doxorubicin": 0.34, "viability z-score without drug": -2.19}
{"gene": "Zc3h12a", "reagent": 1, "combined z-score class": "no change with or without drug", "viability z-score with doxorubicin": 0.11, "viability z-score without drug": 0.34}
{"gene": "Cdkn1a", "reagent": 1, "combined z-score class": "no change with or without drug", "viability z-score with doxorubicin": 0.34, "viability z-score without drug": -0.51}
{"gene": "Or4x15", "reagent": 1, "combined z-score class": "no change with or without drug", "viability z-score with doxorubicin": -1.12, "viability z-score without drug": -1.35}
{"gene": "Atf3", "reagent": 1, "combined z-score class": "high cell count with and without drug", "viability z-score with doxorubicin": 3.15, "viability z-score without drug": 2.7}
{"gene": "Ube4b", "reagent": 1, "combined z-score class": "no change with or without drug", "viability z-score with doxorubicin": 0.11, "viability z-score without drug": -1.01}
{"gene": "Ankrd69", "reagent": 1, "combined z-score class": "no change with or without drug", "viability z-score with doxorubicin": -1.35, "viability z-score without drug": 1.52}
{"gene": "Zswim4", "reagent": 1, "combined z-score class": "no change with or without drug", "viability z-score with doxorubicin": -0.34, "viability z-score without drug": -0.84}
{"gene": "Akr1a1", "reagent": 1, "combined z-score class": "no change with or without drug", "viability z-score with doxorubicin": -0.79, "viability z-score without drug": 1.01}
{"gene": "Arhgef1", "reagent": 1, "combined z-score class": "no change with or without drug", "viability z-score with doxorubicin": -0.9, "viability z-score without drug": 0.84}
{"gene": "Gabrr2", "reagent": 1, "combined z-score class": "no change with or without drug", "viability z-score with doxorubicin": 0.45, "viability z-score without drug": 0.17}
{"gene": "Slc7a5", "reagent": 1, "combined z-score class": "no change with or without drug", "viability z-score with doxorubicin": 0.56, "viability z-score without drug": -0.51}
{"gene": "Tafa1", "reagent": 1, "combined z-score class": "high cell count without drug only", "viability z-score with doxorubicin": 1.35, "viability z-score without drug": 2.19}
{"gene": "Adra1b", "reagent": 1, "combined z-score class": "no change with or without drug", "viability z-score with doxorubicin": -1.12, "viability z-score without drug": 0.17}
{"gene": "Adra1b", "reagent": 2, "combined z-score class": "no change with or without drug", "viability z-score with doxorubicin": 0.11, "viability z-score without drug": -0.17}

Reformatted: entries from further up.
gene | reagent | combined z-score class | viability z-score with doxorubicin | viability z-score without drug
Ear6 | 1 | no change with or without drug | -0.9 | 1.18
Myt1 | 1 | no change with or without drug | 1.69 | -0.17
Mfap3 | 1 | no change with or without drug | 0.79 | 0.17
